From patent US20090215689A1
Results are given in words; binding and its absence hold for the method and conditions named. Some entries that bind do so weakly or less than the wild type.

Protein sequences, listed by entry. Tags and fused reporters are not part of them. Lines headed by an entry give the natural chain unless they say otherwise; changes in a name come on top. Chains listed by the source or under a name are the forms on record and can include a tag or linker. Residues count along the entry.
Human recombinant full length PTX3 (long pentraxin PTX3) (P26022, residues 18-381): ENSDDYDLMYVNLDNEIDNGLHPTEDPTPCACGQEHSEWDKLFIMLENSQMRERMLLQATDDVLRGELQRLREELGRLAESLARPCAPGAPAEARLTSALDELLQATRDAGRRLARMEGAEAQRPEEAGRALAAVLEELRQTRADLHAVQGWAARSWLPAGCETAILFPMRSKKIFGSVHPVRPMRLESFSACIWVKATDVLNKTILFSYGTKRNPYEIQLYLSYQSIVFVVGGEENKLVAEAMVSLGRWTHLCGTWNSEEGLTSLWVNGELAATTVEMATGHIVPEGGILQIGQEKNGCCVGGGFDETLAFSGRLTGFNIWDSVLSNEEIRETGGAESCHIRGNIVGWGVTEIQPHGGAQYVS
recombinant 6xHis-tagged Nterm-PTX3 (N-terminal fragment PTX3(1-178)), from E. coli (P26022, form named): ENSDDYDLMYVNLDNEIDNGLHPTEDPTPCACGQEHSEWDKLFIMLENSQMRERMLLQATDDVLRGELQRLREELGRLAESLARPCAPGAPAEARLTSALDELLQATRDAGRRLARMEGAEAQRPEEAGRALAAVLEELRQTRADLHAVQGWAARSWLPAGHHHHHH
UniProt P09038, residues 134-288: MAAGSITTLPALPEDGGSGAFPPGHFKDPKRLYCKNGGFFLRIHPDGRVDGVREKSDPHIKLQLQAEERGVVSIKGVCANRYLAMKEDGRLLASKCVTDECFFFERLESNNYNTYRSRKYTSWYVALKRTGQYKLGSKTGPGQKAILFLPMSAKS

Columns and labels:
[1] = molecular target: Human recombinant full length PTX3 (long pentraxin PTX3) (human) (UniProt P26022); assay: SPR (BIAcore): FGF2 0.8 µM (upper) and 0.1, 0.5, 0.8, 1.1 µM (lower) injected over immobilized PTX3
[2] = molecular target: Human recombinant FGF2 (Fibroblast growth factor-2) (human) (UniProt P09038); assay: competition ELISA: bPTX3 (22 nM) on FGF2-coated wells with a 10 fold-molar excess of competitor
[3] = molecular target: Human recombinant FGF2 (Fibroblast growth factor-2) (human) (UniProt P09038); assay: ELISA: FGF2-coated wells, protein at 44 nM, detection with rabbit polyclonal anti-PTX3 antibody
[4] = molecular target: Human recombinant FGF2 (Fibroblast growth factor-2) (human) (UniProt P09038); assay: SPR competition: FGF2 0.8 µM over immobilized PTX3 with free PTX3 in the mobile phase
[5] = molecular target: Human recombinant FGF2 (Fibroblast growth factor-2) (human) (UniProt P09038); assay: solid phase binding assay, PTX3-coated wells, FGF2 80 nM, anti-FGF2 detection
[6] = molecular target: Human recombinant FGF2 (Fibroblast growth factor-2) (human) (UniProt P09038); assay: solid phase binding assay (ELISA), FGF2-coated wells, protein 44 nM, anti-PTX3 detection
[7] = molecular target: Human recombinant FGF2 (Fibroblast growth factor-2) (human) (UniProt P09038); assay: competition ELISA: bPTX3 (22 nM) on FGF2-coated wells with competitor at 220 nM

| binding [1] | binding [2] | binding [3] | binding [4] | binding [5] | binding [6] | binding [7] | Substance |
| --- | --- | --- | --- | --- | --- | --- | --- |
| binds | – | – | – | – | – | – | Human recombinant FGF2 (Fibroblast growth factor-2) (from UniProt P09038 134-288) (ligand) |
| – | binds | binds | binds | binds | binds | binds | Human recombinant full length PTX3 (long pentraxin PTX3) (from UniProt P26022 18-381) |
| – | binds | binds | – | – | binds | – | recombinant 6xHis-tagged Nterm-PTX3 (N-terminal fragment PTX3(1-178)), from E. coli (from UniProt P26022 18-178) |
